From PubChem BioAssay AID493014 (National Center for Advancing Translational Sciences (NCATS), 2011)
The whole screen tested about 340,000 compounds, of which about 170 (0.05%) were called active. The shares of active, inactive and inconclusive entries below differ from those in the screen. The call rests on the fitted dose curve; in most records, active means well fitted inhibition curve with a large enough effect in the signal ratio, with a control signal flat (not every such curve was filed as active); inconclusive means small, poorly fitted or top-dose-only effect, or effect the other way, or a change in a side signal; inactive means flat fitted curve, though single readings scatter; the % refers to the signal ratio. A potency beside an inconclusive call is a rough fit, not a confirmed value.

assay: qHTS Assay to Find Inhibitors of Chronic Active B-Cell Receptor Signaling; conditions: ABC-DLBCL IkBa-CBG/CBR reporter, luminescence ratio (green luciferase fused to IkBa over red control in TMD8 lymphoma cells), 4 h; activity change, negative = inhibition: at 46.1 µM (top of the series);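 on activity change, negative = inhibition: plate controls were basal doxycycline-induced cells for no effect and cells given 10 µM MG132 for full effect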
In short: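 Compounds up to 46 uM were incubated four hours with TMD8 cells whose green CBG68 luciferase is fused to IkappaBalpha; red CBR luminescence normalised the signal, and concentration-effect curves were fitted to fusion, red and ratio data.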
Potency means the concentration at half of the fitted maximal effect.

Structure (SMILES) | activity change, negative = inhibition | Potency
CCC(C)NC(=O)CS(=O)Cc1nc(-c2cccc(OC)c2)oc1C (stereo not drawn) | inconclusive: 8.27% | 
Cn1nnnc1SCC(=O)NNC(=O)c1ccc(Cl)cc1 | inconclusive: 5.2% | 
CCN(CC)c1ccc(/C=N/NC(=O)Nc2ccccc2)cc1 | inconclusive: -24.3% | 
CCOC(=O)c1c(-c2ccc(OC)cc2)csc1/N=C/N(C)C | inconclusive: 3.01% | 
CCc1ccc(C(=O)COC(=O)c2n[nH]c3ccccc23)cc1 |  | inconclusive: 11.2 µM [falling, partial curve]
COCCn1c(C)cc(C2=NNC(=Nc3ccc(Cl)cc3Cl)SC2)c1C | inactive: -8.18% | 
CC(=O)N1c2ccc(S(=O)(=O)N3CCCC(C(=O)N4CCCCC4)C3)cc2CC1C (stereo not drawn) | inactive: 8.74% | 
Cc1ccc(C2C3=C(CCCC3=O)Nc3c2c(C)nn3-c2ccccn2)o1 (stereo not drawn) | inconclusive: 0.265% | 
CCNC(=O)COc1ccc(CC)cc1 | inconclusive: 1.1% | 
Cc1noc(C)c1C(=O)Nc1ccccn1 | inconclusive: -22.2% | 
Cc1ccsc1/C=N/NC(=S)NCc1ccccc1 |  | inconclusive: 5.62 µM [falling, single point]
O=C(Nc1ccccc1)Nc1nc2ccccc2s1 |  | inconclusive: 5.62 µM [rising, partial curve]
CCCCCCOc1ccc(/C=c2\s/c(=C(/C#N)C(=O)NCc3ccco3)n(-c3ccccc3)c2=O)cc1 | inconclusive: -6.08% | 
O=C1CCCCC1C(Nc1ccc(Br)cc1)c1ccccc1 (stereo not drawn) | inconclusive: -0.153% | 
CCOC(=O)c1c(NC(=O)c2ccc(Br)cc2)sc2c1CCCC2 | inconclusive: -28.3% | 
COc1cccc(N2CCN(Cc3nc(N)nc(N4CCCc5ccccc54)n3)CC2)c1 |  | inconclusive: 23.1 µM [falling, single point]
O=C(c1cccc(S(=O)(=O)N2CCOCC2)c1)N1CCN(S(=O)(=O)c2cccc([N+](=O)[O-])c2)CC1 | inconclusive: 2.76% | 
C=CCSc1nc(-c2ccccc2)c(C#N)c(=O)[nH]1 | inactive: 19.2% | 
CN1CCC(=NNC(=O)C(=O)Nc2ccc(F)cc2)CC1 |  | inconclusive: 31.6 µM [rising, partial curve]
COc1ccc(C(=O)N2CCN(c3c(C)cccc3C)CC2)cc1OC | inactive: -1.54% | 
O=C(Nc1ccccc1F)Nc1cc(Cl)ccc1-n1cncn1 | inconclusive: -17.1% | 
CCn1cc(C(=O)N2CCN(C(=O)c3ccco3)CC2)c2cc(OC)c(OC)cc2c1=O | inconclusive: 1.93% | 
CCOC(=O)c1cc2c(=O)n3cccc(C)c3nc2n(Cc2ccco2)c1=NC(=O)c1cccnc1 | inconclusive: 29.5% | 
O=C(N/N=C/c1cccnc1)c1ccccc1Br |  | inconclusive: 14.1 µM [falling, partial curve]
Cc1cc(C(=O)N2CCN(Cc3ccc4c(c3)OCO4)CC2)cs1 | inactive: -2.03% | 
O=C1/C(=C/c2ccc(O)cc2)SC(=S)N1CC1CCCO1 (stereo not drawn) |  | inconclusive: 35.5 µM [falling, single point]
COc1cc(C(=O)NC2CC3CCCC(C2)N3Cc2ccccc2)cc(OC)c1OC (stereo not drawn) | inactive: 0.628% | 

Compounds listed so far that contain an aryl thioether with sulfur outside any ring, in the order listed:
Structure (SMILES) | activity change, negative = inhibition | Potency
Cn1nnnc1SCC(=O)NNC(=O)c1ccc(Cl)cc1 | inconclusive: 5.2% | 
C=CCSc1nc(-c2ccccc2)c(C#N)c(=O)[nH]1 | inactive: 19.2% | 

(next part)

Structure (SMILES) | activity change, negative = inhibition | Potency
CCOc1cc(-c2conc2N)cc(OCC)c1OCC | inconclusive: -3.17% | 
C=CCNC(=O)c1ccc(-c2ccc([N+](=O)[O-])cc2)o1 | inconclusive: 3.52% | 
COc1ccc(NC(=O)CN2CCN(Cc3ccc(F)cc3)S2(=O)=O)cc1Cl | inactive: 2.38% | 
O=C1CN(C(=O)COC(=O)/C=C/c2ccc(OC(F)F)cc2)c2ccccc2N1 | inconclusive: 2.4% | 
Cc1ccccc1CC1(CO)CCCN(Cc2ccc(C#CC(C)(C)O)cc2)C1 (stereo not drawn) |  | inconclusive: 11.2 µM [falling, partial curve]
CCN1CCN(S(=O)(=O)c2ccc(OC)c(Br)c2)CC1 | inconclusive: 5.8% | 
Cc1ccc(CCNC(=O)c2cc(C)nn2-c2ccccc2)cc1 | inconclusive: -0.471% | 
O=C(NNC(=O)c1cccs1)c1ccc(Cl)c(Cl)c1 |  | inconclusive: 18.4 µM [falling, partial curve]
CC(Oc1ccc(C#N)cc1)C(=O)c1ccc(F)c(F)c1 (stereo not drawn) |  | inconclusive: 35.5 µM [rising, partial curve, poor fit]
Cc1ccc(-n2ncc(C(=O)NC3CC3)c2C2CCN(C(=O)OC(C)(C)C)CC2)c(C)c1 | inactive: 5.88% | 
Clc1ccc(-c2nnc(-c3ccccc3)c(-c3ccccc3)n2)cc1 | inconclusive: 20.6% | 
COc1ccc(NC(=O)/C(Cl)=C(/Cl)S(=O)Cc2ccc(C)cc2)cn1 (stereo not drawn) |  | inconclusive: 2.06 µM [rising, partial curve]
c1coc(CNc2nc3sc4c(c3c3ncnn23)CCCC4)c1 | inactive: 6.84% | 
CC(C)(C)NC(=O)CN(C(=O)c1snc(C(=O)NC2CCCCC2)c1N)c1ccc(F)cc1 | inconclusive: 14% | 
COC(=O)C1CCN(C(=O)Cc2ccccc2OC)CC1 | inconclusive: -1.87% | 
Cc1ccc(C2(C)NC(=O)N(CC(=O)Nc3ccc4c(c3)OCO4)C2=O)cc1 (stereo not drawn) | inconclusive: 0.752% | 
COc1ccc(C(=O)COC(=O)C(C(C)C)N2C(=O)C3C4C=CC(C4)C3C2=O)cc1 (stereo not drawn) | inconclusive: 6.64% | 
COc1ccc(CNC(=O)c2sccc2C)cc1 |  | inconclusive: 5.01 µM [falling, partial curve]
CCCCn1c(N)c(N(CC(C)C)C(=O)c2cccc(OCc3ccccc3)c2)c(=O)[nH]c1=O | inconclusive: 9.09% | 
COc1ccc(-c2sc3ccc(OC)cc3c2-c2ccc(OC)c(F)c2)cc1 | inactive: -0.429% | 
Cc1ccccc1Cn1c(=N)n(CC(O)c2ccco2)c2ccccc21 (stereo not drawn) | inconclusive: -3.01% | 
O=C(Nc1nc(-c2ccc(Br)cc2)cs1)c1cccnc1 | inactive: 10.3% | 
O=C(NCCCc1ccccc1)c1ccccc1O | inactive: 3.39% | 
CN(C)N1C(N)=C(C#N)C(c2ccccc2)C2=C1CCCC2=O (stereo not drawn) | inconclusive: 6.68% | 
CCOc1ccc2oc(C(=O)OCC(=O)NCC3CCCO3)c(C)c2c1 (stereo not drawn) | inactive: -1.62% | 
CCOC(=O)c1c(C)[nH]c(C)c1S(=O)(=O)N1CCC(C(=O)N2CCN(c3cccc(Cl)c3)CC2)CC1 | inconclusive: 40.4% | 
